Results are given in words; binding and its absence hold for the method and conditions named. For some of these results: In cells and extracts the contact can be indirect. Some entries that bind do so weakly or less than the wild type. Each block holds one substance with its values, some of them ahead of it.
How the values were obtained:
[1] = biological target: Flag-PKM2 K422R (human) (UniProt P14618); assay: cross-linking; whole-cell lysates (200 μg/mL) cross-linked with 1% formaldehyde for 20 min, PKM2 oligomer states by western blot
[2] = biological target: Phosphoglycerate mutase 1 (PGAM1), endogenous (human (endogenous in A549)) (UniProt P18669); assay: co-IP; anti-PGAM1 immunoprecipitation from endogenous PKM2-depleted A549 transfected with Flag-PKM2 or its mutants for 48 h, western blot for Flag
[3] = biological target: Phosphoglycerate mutase 1 (PGAM1), endogenous (human (endogenous in A549)) (UniProt P18669); assay: co-IP; anti-PGAM1 immunoprecipitation from whole-cell lysates of A549 (also H1299, MCF-7, MDA-MB-231, AGS, Jurkat tumour cells; with or without EGF), western blot; IgG as negative control
[4] = biological target: Recombinant His-PGAM1 (human) (UniProt P18669); assay: pull-down; recombinant His-PGAM1 immobilised on Ni-beads, mixed with recombinant GST-PKM2 or GST-ENO1; eluate analysed by western blot; both purified

Amino acid sequences for entries named in this document (tags omitted). A change or cut given only in a name is not applied to a line headed by its entry. Chains listed by the source or under a name are the forms on record and can include a tag or linker.
UniProt P14618: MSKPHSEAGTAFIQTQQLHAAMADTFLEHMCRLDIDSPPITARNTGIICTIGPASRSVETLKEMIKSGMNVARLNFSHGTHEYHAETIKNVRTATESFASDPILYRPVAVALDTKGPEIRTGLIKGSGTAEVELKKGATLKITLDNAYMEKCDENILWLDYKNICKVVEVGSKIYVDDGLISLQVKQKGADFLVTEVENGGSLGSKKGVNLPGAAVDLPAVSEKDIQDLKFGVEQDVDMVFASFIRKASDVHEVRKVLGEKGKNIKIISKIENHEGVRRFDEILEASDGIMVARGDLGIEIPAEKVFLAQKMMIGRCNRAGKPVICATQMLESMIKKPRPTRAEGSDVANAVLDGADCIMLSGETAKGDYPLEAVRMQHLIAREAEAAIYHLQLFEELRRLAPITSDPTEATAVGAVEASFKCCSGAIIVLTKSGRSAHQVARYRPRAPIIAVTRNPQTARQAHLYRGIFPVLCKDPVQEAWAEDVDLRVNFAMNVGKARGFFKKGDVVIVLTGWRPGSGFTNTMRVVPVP
Pyruvate kinase M1 (PKM1), endogenous (P14618-2, form named): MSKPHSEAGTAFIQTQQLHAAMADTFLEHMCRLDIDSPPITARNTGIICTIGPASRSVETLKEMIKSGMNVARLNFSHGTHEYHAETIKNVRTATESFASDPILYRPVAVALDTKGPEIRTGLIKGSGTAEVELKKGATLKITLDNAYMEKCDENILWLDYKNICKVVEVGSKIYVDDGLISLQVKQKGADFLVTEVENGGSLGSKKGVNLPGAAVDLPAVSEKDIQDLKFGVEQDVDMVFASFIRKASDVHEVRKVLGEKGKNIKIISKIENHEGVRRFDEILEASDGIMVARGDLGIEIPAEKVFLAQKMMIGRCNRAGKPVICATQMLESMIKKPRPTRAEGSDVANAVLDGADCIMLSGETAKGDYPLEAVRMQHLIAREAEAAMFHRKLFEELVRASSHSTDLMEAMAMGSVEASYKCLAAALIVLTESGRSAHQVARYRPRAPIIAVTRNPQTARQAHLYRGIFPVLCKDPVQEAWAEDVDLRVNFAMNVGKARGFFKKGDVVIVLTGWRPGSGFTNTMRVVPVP
UniProt P18669: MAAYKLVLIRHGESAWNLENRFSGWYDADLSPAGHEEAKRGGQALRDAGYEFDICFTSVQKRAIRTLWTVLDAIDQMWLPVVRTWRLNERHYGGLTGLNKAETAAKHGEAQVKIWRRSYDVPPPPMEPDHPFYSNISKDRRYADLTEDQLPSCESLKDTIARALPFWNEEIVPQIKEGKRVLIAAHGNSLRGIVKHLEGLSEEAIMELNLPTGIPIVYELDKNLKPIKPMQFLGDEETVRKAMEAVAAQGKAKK
UniProt P15531: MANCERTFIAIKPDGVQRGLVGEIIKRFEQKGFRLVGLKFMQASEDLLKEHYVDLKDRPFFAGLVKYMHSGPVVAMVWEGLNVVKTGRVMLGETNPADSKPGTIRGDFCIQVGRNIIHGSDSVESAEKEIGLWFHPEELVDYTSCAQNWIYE
UniProt P22392: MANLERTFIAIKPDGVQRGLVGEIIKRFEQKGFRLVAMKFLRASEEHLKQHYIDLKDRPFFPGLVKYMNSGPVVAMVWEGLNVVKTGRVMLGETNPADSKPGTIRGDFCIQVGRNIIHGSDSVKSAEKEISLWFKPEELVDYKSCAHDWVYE
UniProt P06733: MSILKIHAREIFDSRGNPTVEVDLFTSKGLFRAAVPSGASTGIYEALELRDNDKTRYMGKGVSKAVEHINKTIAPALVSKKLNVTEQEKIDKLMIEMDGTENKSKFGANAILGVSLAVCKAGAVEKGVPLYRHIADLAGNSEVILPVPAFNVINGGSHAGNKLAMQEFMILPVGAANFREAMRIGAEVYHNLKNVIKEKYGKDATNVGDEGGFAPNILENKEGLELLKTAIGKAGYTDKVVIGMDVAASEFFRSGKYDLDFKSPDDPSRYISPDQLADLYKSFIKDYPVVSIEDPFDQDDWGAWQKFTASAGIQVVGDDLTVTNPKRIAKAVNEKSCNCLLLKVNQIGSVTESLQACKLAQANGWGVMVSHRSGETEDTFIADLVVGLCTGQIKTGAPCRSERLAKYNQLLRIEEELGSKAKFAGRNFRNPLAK

- binding [1]: binds
Substance: Flag-PKM2 K422R (from UniProt P14618 1-531) (enzyme)

- binding [2]: binds
Substance: Flag-PKM2 R399E (from UniProt P14618 1-531) (enzyme)

- binding [2]: binds
Substance: Flag-PKM2 Y105E/K270M (from UniProt P14618 1-531) (enzyme)

- binding [3]: no binding
Substance: Nucleoside diphosphate kinase 1 (NME1), endogenous (from UniProt P15531 1-152) (enzyme)

- binding [3]: no binding
Substance: Pyruvate kinase M1 (PKM1), endogenous (from UniProt P14618-2 1-531) (enzyme)

The remaining lines, values behind:

Substance: Flag-PKM2 R399E/K270M (from UniProt P14618 1-531) (enzyme)
- binding [2]: binds

Substance: Flag-PKM2 Y105E (from UniProt P14618 1-531) (enzyme)
- binding [2]: binds

Substance: Flag-PKM2 wild type (from UniProt P14618 1-531) (enzyme)
- binding [2]: binds

Substance: Nucleoside diphosphate kinase 2 (NME2), endogenous (from UniProt P22392 1-152) (enzyme)
- binding [3]: no binding

Substance: Recombinant GST-ENO1 (from UniProt P06733 1-434) (enzyme)
- binding [4]: no binding
